Values from PubChem BioAssay AID686943 (Drosophila RNAi Screening Center, 2013).

- Assay: 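Fly genes whose loss alters ERK activation after insulin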 (primary screen)
- Cells: Drosophila S2R+ haemocyte-like cells expressing YFP-tagged ERK (Rolled)
- Reagent: long dsRNA against Drosophila genes
- Conditions: insulin stimulation versus unstimulated cells; dose and duration not given
- Read-out: 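Antibody staining for doubly phosphorylated ERK divided by ERK-YFP signal, as plate z-scores, in insulin-treated and untreated cells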
- Reading the numbers: replicate 1, z-score of dpERK with insulin and replicate 2, z-score of dpERK with insulin: higher = more active ERK per ERK-YFP after insulin; replicate 1, z-score of dpERK under basal conditions: higher = more basal active ERK per ERK-YFP; replicate 1, z-score of ERK-YFP with insulin: higher = more YFP-tagged ERK signal
In all, the deposit lists about 23,000 reagents; below is a random part of those that have a named target and a result. 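Extra replicates exist only for a retested subset of genes; insulin dose and duration not given; both raised and lowered dpERK matter.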 Names joined by + are all predicted targets of the reagent. Reagent sequences are not shown. Not stated in the record: the amount of reagent, the time to read-out.

gene,DRSC id,"replicate 1, z-score of dpERK with insulin","replicate 2, z-score of dpERK with insulin","replicate 1, z-score of dpERK under basal conditions","replicate 1, z-score of ERK-YFP with insulin"
Tektin-A (Tektin A),DRSC01921,-0.62,-0.16,-1.93,1.58
CG9822,DRSC04568,-0.09,0.75,0.02,-0.89
CG34266,DRSC08323,-1.77,-1,-0.52,-0.21
Calr (Calreticulin),DRSC16614,-0.22,-0.89,-0.31,-1.6
HDAC1 (Histone deacetylase 1),DRSC08696,-1.43,-0.61,-0.42,-1.65
Pif1 (Pif1 DNA helicase),DRSC00582,-0.13,0.46,-0.51,-0.97
Dll (Distal-less),DRSC04610,0.15,-0.07,-2.57,1.15
CG18063,DRSC01968,0.17,0.46,0.78,-0.07
CG12861,DRSC06201,0.31,-0.1,0.11,-0.15
CG12861,DRSC21960,-0.5,0.11,-0.86,1.98
CG1910,DRSC15400,-0.09,0.59,0.35,0.75
Ance (Angiotensin converting enzyme),DRSC01865,-0.84,-0.1,-0.53,0.26
CG2915,DRSC06842,0.59,0.28,-0.18,0.04
CG15249,DRSC17978,0.9,0,0.04,-0.02
Parp16 (Poly(ADP-ribose) polymerase 16),DRSC06597,1.11,0.77,0.94,-0.13
CG33271,DRSC10583,-1.96,-1.82,1.29,-0.73
CycA (Cyclin A),DRSC09132,-0.23,-1.67,-2.83,-4.21
CycA (Cyclin A),DRSC11123,-1.18,-1.7,-2.72,-2.93
CG6163,DRSC10595,0.2,0.82,-0.73,0.01
wupA (wings up A),DRSC20385,0.6,0.31,-0.34,-0.13
wupA (wings up A),DRSC22547,0.41,1.01,-0.84,0.36
Rga + asRNA:ASTR,DRSC12364,0.08,-1.03,0.06,-1.53
CG43219,DRSC11472,-0.57,-0.76,-2.05,0.18
AANATL3 (Arylalkylamine N-acetyltransferase-like 3),DRSC02089,-0.43,-0.42,0.06,0.65
CG42809,DRSC02532,-0.37,-0.19,-0.61,0.06
unc79 (uncoordinated 79),DRSC15746,-0.44,-0.03,-0.64,0.51
SWIP (Strumpellin and WASH-interacting protein),DRSC19540,-0.22,-0.04,0.26,0.1
ProtB (Protamine B),DRSC03373,0.14,-0.6,-0.95,-0.29
CG30271,DRSC04170,-0.2,0.75,-0.43,0.7

Next part, starting with the last 4 of the part before.
gene,DRSC id,"replicate 1, z-score of dpERK with insulin","replicate 2, z-score of dpERK with insulin","replicate 1, z-score of dpERK under basal conditions","replicate 1, z-score of ERK-YFP with insulin"
unc79 (uncoordinated 79),DRSC15746,-0.44,-0.03,-0.64,0.51
SWIP (Strumpellin and WASH-interacting protein),DRSC19540,-0.22,-0.04,0.26,0.1
ProtB (Protamine B),DRSC03373,0.14,-0.6,-0.95,-0.29
CG30271,DRSC04170,-0.2,0.75,-0.43,0.7
fend (forked end),DRSC17601,0.47,0.23,-1.45,-0.57
fend (forked end),DRSC17867,-0.08,-0.02,-1.47,0.58
CG8329,DRSC10978,0.14,-0.68,0.08,0.85
Rh3 (Rhodopsin 3),DRSC16822,0.24,-0.12,-0.06,-0.49
CG11857,DRSC14411,0.55,0.13,-0.19,-0.9
Sec8 (Secretory 8),DRSC12300,0.98,0.02,0.4,-0.03
CG31195,DRSC13440,1.17,1.61,-0.3,0.37
CG12268,DRSC14491,-0.88,-0.27,0.08,-0.23
Achl (Achilles),DRSC06665,0.01,-0.2,0.16,-0.14
CG10616,DRSC09750,0.52,0.17,0.3,0.02
hmw (hemingway),DRSC16277,0.12,1.1,1.13,0.52
ninaE (neither inactivation nor afterpotential E),DRSC17014,-0.87,-0.24,0.28,0.78
CG32221,DRSC09638,-0.09,0.87,-0.5,-1.49
CG42540,DRSC08327,-0.93,-1.35,-1.35,-1.72
CG42540,DRSC08328,-1.7,-0.6,-0.67,-3.16
CG42540,DRSC08593,-2.34,-3.53,-1.25,-3.97
MFS14 (Major Facilitator Superfamily Transporter 14),DRSC06524,0.99,0.33,-0.28,-0.53
twy (twitchy),DRSC10562,1.06,0.8,0.28,0.26
CG34263,DRSC07866,0.75,0.38,0.27,0.12
CG12375,DRSC02163,0.34,0.51,-0.04,0.27
CG3557,DRSC00614,-0.33,0.3,-0.34,0.54
lncRNA:CR42862 + CG33229,DRSC08497,-0.01,0.25,-1.04,0.79
l(2)gd1 (lethal (2) giant discs 1),DRSC02773,0.04,0.78,-0.24,0.07
CG12288,DRSC02155,-0.11,0.19,-0.37,-0.97
CG3916,DRSC15520,-0.28,0.3,0.42,0.51
Clic (Chloride intracellular channel),DRSC19364,0.95,0.54,0.05,0.3
CG12279,DRSC14495,-1.07,0.05,-0.64,0.19
CG4294,DRSC04460,-0.24,-0.53,-0.19,1.73
